Measured values published in publication PMC3819381.
Results are given in words; binding and its absence hold for the method and conditions named. Binding seen in cells or lysates may run through a third protein. Some entries that bind do so weakly or less than the wild type. For some of these results: Sequences can lack the tags named with a protein.

The chains behind the UniProt entries cited, without tags or fusion partners.
UniProt P51532: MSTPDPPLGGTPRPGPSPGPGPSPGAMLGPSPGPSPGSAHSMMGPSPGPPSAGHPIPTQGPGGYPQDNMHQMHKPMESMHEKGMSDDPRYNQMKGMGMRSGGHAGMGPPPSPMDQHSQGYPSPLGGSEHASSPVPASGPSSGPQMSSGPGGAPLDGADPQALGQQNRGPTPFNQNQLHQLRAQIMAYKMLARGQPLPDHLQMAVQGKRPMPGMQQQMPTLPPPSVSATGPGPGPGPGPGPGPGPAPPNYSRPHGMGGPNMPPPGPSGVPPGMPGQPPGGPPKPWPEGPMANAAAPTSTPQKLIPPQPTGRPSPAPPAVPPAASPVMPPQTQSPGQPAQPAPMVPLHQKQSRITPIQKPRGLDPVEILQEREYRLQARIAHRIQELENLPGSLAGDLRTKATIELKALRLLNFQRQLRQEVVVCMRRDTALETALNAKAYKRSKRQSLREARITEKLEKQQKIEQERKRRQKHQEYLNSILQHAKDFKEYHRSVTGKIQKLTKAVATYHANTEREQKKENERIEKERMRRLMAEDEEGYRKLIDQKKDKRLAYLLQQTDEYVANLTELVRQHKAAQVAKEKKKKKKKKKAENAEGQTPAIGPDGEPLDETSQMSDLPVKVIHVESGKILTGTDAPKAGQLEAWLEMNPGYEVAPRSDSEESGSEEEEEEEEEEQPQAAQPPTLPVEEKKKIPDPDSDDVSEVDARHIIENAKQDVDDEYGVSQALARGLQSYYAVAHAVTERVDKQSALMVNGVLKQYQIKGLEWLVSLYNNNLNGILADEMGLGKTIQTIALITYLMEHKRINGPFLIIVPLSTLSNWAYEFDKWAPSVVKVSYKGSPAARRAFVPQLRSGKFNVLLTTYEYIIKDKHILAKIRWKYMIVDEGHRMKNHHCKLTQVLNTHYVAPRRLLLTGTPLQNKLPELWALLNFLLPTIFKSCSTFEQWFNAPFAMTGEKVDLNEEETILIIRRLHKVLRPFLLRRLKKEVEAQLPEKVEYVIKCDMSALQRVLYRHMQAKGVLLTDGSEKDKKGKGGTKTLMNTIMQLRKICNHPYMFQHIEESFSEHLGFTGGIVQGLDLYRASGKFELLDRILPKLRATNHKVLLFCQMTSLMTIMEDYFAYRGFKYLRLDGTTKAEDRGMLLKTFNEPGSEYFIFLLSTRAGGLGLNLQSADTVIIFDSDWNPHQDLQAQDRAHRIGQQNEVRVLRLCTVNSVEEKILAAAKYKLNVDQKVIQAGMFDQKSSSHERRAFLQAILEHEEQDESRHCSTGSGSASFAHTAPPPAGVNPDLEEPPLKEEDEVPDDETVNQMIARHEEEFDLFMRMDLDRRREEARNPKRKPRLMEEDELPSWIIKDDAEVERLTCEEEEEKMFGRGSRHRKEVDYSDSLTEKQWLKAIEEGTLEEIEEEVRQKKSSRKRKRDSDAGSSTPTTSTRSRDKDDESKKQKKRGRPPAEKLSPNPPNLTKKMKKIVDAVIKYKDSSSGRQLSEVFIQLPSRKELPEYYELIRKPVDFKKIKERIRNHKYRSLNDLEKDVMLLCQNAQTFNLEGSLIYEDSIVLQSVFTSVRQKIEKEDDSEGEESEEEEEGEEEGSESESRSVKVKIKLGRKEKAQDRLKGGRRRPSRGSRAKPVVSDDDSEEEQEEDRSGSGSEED

T1: ATF2 (human (endogenous in K562 and in CD34+-derived erythroid cells)), P15336
T1 chain: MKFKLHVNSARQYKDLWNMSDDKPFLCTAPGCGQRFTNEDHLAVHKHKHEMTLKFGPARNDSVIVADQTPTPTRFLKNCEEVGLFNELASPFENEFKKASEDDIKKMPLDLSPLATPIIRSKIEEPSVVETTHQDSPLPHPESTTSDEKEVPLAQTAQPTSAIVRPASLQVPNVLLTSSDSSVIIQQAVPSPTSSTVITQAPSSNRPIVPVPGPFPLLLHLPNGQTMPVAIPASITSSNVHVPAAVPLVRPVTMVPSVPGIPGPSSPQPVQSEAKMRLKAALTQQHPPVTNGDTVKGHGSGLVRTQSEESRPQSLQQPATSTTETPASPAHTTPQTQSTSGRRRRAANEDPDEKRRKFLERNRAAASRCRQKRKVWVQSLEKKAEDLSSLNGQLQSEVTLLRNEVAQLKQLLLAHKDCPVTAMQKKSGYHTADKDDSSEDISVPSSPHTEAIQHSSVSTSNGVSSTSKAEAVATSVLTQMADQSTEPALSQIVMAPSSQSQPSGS

T2: His-FLAG-tagged ATF2 (human (cDNA from K562 cells)), P15336
T2 chain: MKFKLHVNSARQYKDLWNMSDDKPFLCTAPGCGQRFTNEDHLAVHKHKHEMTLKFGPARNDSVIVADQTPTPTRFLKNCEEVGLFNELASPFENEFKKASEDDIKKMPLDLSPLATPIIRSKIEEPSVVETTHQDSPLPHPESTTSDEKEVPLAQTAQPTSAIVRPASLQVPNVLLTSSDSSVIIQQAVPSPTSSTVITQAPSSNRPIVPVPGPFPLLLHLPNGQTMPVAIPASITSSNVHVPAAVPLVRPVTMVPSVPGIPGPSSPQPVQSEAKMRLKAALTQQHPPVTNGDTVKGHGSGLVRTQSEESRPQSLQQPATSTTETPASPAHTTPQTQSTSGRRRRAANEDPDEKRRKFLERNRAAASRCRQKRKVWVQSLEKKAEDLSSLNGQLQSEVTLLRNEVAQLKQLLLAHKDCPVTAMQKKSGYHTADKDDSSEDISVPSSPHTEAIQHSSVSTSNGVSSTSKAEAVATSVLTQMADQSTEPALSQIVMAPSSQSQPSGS

B1: cJun, P05412 1-331 (protein)
chain: MTAKMETTFYDDALNASFLPSESGPYGYSNPKILKQSMTLNLADPVGSLKPHLRAKNSDLLTSPDVGLLKLASPELERLIIQSSNGHITTTPTPTQFLCPKNVTDEQEGFAEGFVRALAELHSQNTLPSVTSAAQPVNGAGMVAPAVASVAGGSGSGGFSASLHSEPPVYANLSNFNPGALSSGGGAPSYGAAGLAFPAQPQQQQQPPHHLPQQMPVQHPRLQALKEEPQTVPEMPGETPPLSPIDMESQERIKAERKRMRNRIAASKCRKRKLERIARLEEKVKTLKAQNSELASTANMLREQVAQLKQKVMNHVNSGCQLMLTQQLQTF
B2: ATF2 (protein, UniProt P15336 1-505)
chain: MKFKLHVNSARQYKDLWNMSDDKPFLCTAPGCGQRFTNEDHLAVHKHKHEMTLKFGPARNDSVIVADQTPTPTRFLKNCEEVGLFNELASPFENEFKKASEDDIKKMPLDLSPLATPIIRSKIEEPSVVETTHQDSPLPHPESTTSDEKEVPLAQTAQPTSAIVRPASLQVPNVLLTSSDSSVIIQQAVPSPTSSTVITQAPSSNRPIVPVPGPFPLLLHLPNGQTMPVAIPASITSSNVHVPAAVPLVRPVTMVPSVPGIPGPSSPQPVQSEAKMRLKAALTQQHPPVTNGDTVKGHGSGLVRTQSEESRPQSLQQPATSTTETPASPAHTTPQTQSTSGRRRRAANEDPDEKRRKFLERNRAAASRCRQKRKVWVQSLEKKAEDLSSLNGQLQSEVTLLRNEVAQLKQLLLAHKDCPVTAMQKKSGYHTADKDDSSEDISVPSSPHTEAIQHSSVSTSNGVSSTSKAEAVATSVLTQMADQSTEPALSQIVMAPSSQSQPSGS

Legend:
[1] = target: T1, ATF2 (human (endogenous in K562 and in …)); assay: co-IP; 500 µg K562 nuclear extract, 2 µg ATF2 or Brg1 antibody (IgG control), protein A/G-agarose overnight, western blot; settings: remark: other sources report otherwise
[2] = target: CREB1 (human (endogenous in K562 and in CD34+-derived erythroid cells)), P16220; assay: co-IP; lysates (50 µg) of CD34+-derived erythroid cells at day 3, 7, 14 and 21 of erythropoietin-induced differentiation, IP with anti-CREB1 antibody (IgG control), western blot; settings: remark: other sources report otherwise
[3] = target: T2, His-FLAG-tagged ATF2 (human (cDNA from …)); assay: co-sedimentation; 10-30% sucrose gradient in HEMG buffer, 4°C; 0.6 M NaCl heparin sepharose fractions dialysed against HEMG; fractions 10-17 by western blot; co-migration from 2 mDa peaking at 700 kDa; settings: remark: other sources report otherwise
[4] = target: Brg1 (human (endogenous in K562 and in CD34+-derived erythroid cells)) (UniProt P51532); assay: co-IP; 500 µg K562 nuclear extract, 2 µg ATF2 or Brg1 antibody (IgG control), protein A/G-agarose overnight, western blot

| Binder | binding [1] | binding [2] | binding [3] | binding [4] |
| --- | --- | --- | --- | --- |
| B1 | binds | binds | binds |  |
| B2 |  |  |  | binds |
